Measured values taken from the supplement of paper PMC12823440, “Inhibitors supercharge kinase turnover through native proteolytic circuits” (Nature, 2025).
Counter-ions that a name gives are not always drawn. Some of the results follow. The calls rarely recur for the same compound in another form.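 Kinases, fused to nanoluciferase, were expressed in K562 cells; luminescence was measured every 4 h from 2 to 18 h as percent of control (DMSO = 100%, positive control = 0%). A time point is decreased if signal falls significantly (2 sigma). Hits were called by the authors by a rule that is not shown; the count of time points alone does not decide it.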

Amino acid sequences for entries named in this document (tags omitted). A change or cut given only in a name is not applied to a line headed by its entry.
UniProt Q12851: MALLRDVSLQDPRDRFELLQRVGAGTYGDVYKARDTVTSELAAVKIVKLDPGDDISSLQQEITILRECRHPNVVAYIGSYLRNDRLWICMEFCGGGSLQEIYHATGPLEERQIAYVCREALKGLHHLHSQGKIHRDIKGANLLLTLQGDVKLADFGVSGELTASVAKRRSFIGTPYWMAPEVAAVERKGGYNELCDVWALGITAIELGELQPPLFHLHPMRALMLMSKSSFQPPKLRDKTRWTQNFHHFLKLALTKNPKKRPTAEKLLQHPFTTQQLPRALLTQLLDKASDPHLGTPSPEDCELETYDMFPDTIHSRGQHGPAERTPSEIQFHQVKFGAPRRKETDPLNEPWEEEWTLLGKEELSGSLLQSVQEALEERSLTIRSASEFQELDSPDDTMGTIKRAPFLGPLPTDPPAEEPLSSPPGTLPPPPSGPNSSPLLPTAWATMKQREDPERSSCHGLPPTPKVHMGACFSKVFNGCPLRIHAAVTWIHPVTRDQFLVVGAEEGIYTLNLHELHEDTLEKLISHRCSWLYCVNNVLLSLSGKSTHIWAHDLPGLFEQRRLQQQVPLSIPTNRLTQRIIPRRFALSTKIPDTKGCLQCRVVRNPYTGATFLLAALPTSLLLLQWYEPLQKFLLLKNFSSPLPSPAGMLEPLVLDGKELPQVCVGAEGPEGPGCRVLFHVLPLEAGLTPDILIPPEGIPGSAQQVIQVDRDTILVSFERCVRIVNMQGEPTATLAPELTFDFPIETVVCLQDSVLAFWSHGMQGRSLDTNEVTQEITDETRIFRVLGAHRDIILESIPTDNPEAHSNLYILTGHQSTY
UniProt P28482, whole entry: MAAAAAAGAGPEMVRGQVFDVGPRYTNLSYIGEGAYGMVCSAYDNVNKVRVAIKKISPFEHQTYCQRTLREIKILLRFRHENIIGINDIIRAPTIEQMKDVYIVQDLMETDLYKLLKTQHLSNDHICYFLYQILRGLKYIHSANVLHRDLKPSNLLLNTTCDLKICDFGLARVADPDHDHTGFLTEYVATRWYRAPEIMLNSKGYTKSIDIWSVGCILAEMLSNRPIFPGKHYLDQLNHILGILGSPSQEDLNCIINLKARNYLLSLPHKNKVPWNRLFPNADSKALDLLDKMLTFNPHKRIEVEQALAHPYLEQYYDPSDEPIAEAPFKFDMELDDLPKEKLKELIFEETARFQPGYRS
UniProt P31152, whole entry: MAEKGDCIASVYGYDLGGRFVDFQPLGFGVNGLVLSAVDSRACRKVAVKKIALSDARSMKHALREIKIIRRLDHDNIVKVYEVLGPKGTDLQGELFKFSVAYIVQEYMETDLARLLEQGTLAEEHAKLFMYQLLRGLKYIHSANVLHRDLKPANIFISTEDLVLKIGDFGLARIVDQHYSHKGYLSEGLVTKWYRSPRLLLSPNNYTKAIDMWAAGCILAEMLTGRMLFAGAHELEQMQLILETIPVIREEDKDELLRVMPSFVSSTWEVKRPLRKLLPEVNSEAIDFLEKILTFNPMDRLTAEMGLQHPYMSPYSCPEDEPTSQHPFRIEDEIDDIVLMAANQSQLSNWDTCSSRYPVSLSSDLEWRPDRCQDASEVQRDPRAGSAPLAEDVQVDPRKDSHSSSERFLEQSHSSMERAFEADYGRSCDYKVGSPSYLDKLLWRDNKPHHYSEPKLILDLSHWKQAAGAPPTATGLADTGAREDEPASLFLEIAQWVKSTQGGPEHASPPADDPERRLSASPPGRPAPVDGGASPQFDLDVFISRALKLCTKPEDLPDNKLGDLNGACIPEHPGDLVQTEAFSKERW
UniProt Q9BUB5: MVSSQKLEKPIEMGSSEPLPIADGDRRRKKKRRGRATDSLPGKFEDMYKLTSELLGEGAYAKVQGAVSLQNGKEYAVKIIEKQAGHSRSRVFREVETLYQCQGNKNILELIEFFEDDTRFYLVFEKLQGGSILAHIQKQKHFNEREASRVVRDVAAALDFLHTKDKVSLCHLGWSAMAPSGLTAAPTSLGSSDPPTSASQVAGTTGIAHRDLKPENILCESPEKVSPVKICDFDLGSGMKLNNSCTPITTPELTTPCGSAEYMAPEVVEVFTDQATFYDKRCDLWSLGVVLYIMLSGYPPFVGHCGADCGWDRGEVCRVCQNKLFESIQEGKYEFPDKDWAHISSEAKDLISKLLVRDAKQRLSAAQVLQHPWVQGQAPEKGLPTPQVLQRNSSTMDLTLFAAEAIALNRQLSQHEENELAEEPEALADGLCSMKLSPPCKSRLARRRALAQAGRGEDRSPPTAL
UniProt O96013: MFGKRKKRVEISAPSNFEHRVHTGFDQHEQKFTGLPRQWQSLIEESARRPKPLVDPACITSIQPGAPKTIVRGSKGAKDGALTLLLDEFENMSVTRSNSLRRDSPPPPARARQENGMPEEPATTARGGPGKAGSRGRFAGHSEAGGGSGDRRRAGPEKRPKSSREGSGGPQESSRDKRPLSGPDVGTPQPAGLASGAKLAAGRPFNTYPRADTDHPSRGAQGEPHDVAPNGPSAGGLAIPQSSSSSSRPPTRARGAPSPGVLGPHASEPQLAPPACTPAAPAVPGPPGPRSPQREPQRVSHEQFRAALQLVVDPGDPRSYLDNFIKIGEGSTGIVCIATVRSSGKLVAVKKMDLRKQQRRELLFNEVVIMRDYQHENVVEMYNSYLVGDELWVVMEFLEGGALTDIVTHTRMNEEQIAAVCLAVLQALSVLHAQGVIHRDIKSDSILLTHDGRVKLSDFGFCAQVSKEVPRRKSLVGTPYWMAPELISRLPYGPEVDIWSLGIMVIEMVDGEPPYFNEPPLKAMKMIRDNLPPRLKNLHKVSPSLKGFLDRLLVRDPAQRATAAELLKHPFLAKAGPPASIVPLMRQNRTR
UniProt Q96KB5: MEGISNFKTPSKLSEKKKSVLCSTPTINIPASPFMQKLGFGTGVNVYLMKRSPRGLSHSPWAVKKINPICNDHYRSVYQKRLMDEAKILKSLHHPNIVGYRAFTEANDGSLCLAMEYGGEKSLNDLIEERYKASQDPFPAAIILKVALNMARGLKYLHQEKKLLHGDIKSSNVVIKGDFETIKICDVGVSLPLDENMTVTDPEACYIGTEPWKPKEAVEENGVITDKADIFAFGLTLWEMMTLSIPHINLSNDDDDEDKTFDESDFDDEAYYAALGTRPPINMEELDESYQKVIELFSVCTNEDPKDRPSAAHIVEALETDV
UniProt P09619, whole entry: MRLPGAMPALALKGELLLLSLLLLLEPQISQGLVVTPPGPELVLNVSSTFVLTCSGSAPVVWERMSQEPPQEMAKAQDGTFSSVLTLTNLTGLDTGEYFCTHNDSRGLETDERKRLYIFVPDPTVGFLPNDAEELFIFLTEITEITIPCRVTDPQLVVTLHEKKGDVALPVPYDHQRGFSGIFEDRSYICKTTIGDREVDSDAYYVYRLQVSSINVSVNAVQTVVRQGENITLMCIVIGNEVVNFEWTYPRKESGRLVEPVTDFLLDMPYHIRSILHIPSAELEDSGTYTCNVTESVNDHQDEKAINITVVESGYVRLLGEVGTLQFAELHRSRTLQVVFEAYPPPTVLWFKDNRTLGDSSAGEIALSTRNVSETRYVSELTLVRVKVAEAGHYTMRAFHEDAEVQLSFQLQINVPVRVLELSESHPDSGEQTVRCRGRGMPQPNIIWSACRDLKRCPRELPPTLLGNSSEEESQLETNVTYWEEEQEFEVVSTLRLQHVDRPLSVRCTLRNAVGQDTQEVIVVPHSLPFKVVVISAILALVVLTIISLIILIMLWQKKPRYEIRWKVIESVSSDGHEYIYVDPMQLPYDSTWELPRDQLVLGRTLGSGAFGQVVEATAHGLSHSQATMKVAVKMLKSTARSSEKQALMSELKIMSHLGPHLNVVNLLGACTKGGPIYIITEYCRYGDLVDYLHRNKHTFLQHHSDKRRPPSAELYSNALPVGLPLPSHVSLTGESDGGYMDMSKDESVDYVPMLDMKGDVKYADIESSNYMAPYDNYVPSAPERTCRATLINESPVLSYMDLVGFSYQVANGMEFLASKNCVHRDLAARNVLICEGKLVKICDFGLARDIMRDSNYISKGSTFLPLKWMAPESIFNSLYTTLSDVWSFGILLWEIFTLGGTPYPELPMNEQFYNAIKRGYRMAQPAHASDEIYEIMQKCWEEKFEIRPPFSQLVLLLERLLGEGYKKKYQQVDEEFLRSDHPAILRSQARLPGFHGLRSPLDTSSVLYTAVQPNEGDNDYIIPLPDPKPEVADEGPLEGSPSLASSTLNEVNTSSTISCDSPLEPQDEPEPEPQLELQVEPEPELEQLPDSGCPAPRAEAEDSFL
UniProt O15530: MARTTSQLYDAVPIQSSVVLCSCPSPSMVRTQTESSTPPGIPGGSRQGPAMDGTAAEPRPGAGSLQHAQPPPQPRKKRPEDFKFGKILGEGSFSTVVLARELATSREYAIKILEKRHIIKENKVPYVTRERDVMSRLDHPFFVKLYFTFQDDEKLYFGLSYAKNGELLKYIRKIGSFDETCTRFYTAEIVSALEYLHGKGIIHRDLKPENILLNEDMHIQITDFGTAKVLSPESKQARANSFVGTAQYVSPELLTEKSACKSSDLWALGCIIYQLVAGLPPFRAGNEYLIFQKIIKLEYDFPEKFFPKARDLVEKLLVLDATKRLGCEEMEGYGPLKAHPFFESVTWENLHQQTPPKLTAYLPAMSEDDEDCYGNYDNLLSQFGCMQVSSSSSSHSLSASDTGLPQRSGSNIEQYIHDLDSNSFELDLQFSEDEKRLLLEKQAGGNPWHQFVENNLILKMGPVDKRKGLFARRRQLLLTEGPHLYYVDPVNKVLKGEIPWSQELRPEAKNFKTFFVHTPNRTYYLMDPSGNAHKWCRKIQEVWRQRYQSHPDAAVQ
UniProt Q9UBF8: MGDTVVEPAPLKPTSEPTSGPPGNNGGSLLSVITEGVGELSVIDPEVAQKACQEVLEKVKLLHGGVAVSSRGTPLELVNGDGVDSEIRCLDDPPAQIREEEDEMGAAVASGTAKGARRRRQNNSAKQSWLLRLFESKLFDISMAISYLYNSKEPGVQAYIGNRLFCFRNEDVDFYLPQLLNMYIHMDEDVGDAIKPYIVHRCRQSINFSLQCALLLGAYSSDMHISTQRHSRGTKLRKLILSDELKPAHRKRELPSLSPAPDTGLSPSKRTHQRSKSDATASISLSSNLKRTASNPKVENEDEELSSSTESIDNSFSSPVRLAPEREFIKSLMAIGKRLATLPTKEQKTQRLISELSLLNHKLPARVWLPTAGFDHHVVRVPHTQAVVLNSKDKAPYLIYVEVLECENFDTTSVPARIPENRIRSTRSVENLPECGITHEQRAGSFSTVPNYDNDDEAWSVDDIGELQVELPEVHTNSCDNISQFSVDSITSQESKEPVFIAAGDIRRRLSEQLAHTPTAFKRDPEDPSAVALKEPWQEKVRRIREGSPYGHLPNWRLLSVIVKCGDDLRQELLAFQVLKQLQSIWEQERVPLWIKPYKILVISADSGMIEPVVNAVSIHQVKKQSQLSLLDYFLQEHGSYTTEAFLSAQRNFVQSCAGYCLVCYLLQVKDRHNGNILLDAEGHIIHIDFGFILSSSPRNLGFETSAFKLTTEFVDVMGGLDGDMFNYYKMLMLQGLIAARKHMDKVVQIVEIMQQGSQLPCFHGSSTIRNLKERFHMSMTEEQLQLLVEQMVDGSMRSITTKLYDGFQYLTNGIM
UniProt P53350, whole entry: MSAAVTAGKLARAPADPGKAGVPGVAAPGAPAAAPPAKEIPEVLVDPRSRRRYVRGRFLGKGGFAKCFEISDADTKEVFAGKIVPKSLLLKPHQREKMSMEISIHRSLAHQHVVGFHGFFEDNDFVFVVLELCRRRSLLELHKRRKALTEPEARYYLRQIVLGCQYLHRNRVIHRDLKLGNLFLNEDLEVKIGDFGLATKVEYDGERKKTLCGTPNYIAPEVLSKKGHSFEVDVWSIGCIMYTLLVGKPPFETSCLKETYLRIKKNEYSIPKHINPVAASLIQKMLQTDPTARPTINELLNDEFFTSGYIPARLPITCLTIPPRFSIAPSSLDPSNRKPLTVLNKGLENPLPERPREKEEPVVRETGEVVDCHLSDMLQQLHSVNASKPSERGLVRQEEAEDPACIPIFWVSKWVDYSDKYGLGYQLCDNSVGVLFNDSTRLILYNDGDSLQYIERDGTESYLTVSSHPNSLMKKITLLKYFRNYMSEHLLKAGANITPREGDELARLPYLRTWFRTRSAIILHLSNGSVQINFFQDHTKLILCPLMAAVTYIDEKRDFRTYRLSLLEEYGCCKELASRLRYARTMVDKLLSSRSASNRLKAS

Assays:
Assay in all cases: number of time points (of 5) at which kinase-Nluc abundance scored as decreased, DMSO-normalised (count); higher = more persistent destabilization
Settings in all cases: K562; 2-18 h
[1] = target: LMTK2 (UniProt Q8IWU2)
[2] = target: LYN (UniProt P07948)
[3] = target: MAP2K1 (UniProt Q02750)
[4] = target: MAP2K2 (UniProt P36507)
[5] = target: MAP4K2 (UniProt Q12851)
[6] = target: MAPK1 (UniProt P28482)
[7] = target: MAPK4 (UniProt P31152)
[8] = target: MAPKAPK2 (UniProt P49137)
[9] = target: MKNK1 (UniProt Q9BUB5)
[10] = target: NTRK2 (UniProt Q16620)
[11] = target: NTRK3 (UniProt Q16288)
[12] = target: PAK4 (UniProt O96013)
[13] = target: PBK (UniProt Q96KB5)
[14] = target: PDGFRB (UniProt P09619)
[15] = target: PDK1 (UniProt Q15118)
[16] = target: PDPK1 (UniProt O15530)
[17] = target: PIK4CA (UniProt P42356)
[18] = target: PIK4CB (UniProt Q9UBF8)
[19] = target: PLK1 (UniProt P53350)
[20] = target: PRKAA1 (UniProt Q13131)

| SMILES | number of time points [1] | number of time points [2] | number of time points [3] | number of time points [4] | number of time points [5] | number of time points [6] | number of time points [7] | number of time points [8] | number of time points [9] | number of time points [10] | number of time points [11] | number of time points [12] | number of time points [13] | number of time points [14] | number of time points [15] | number of time points [16] | number of time points [17] | number of time points [18] | number of time points [19] | number of time points [20] |
| --- | --- | --- | --- | --- | --- | --- | --- | --- | --- | --- | --- | --- | --- | --- | --- | --- | --- | --- | --- | --- |
| CC(C)c1cc(/C=C(\C#N)C(N)=O)cc(C(C)C)c1O (10 µM) | 0 | 0 | 0 | 0 | 0 | 0 | 0 | 0 | 0 | 0 | 0 | 0 | 0 | 0 | 0 | 0 | 0 | 0 | 0 | 0 |
| O=C(O)c1ccccc1Nc1cccc(C(F)(F)F)c1 [Flufenamic acid] (10 µM) | 0 | 0 | 4 | 0 | 0 | 0 | 0 | 0 | 0 | 0 | 0 | 0 | 0 | 0 | 0 | 0 | 0 | 0 | 0 | 0 |
| Cc1nc(NC(=O)NCCc2nnn(CCF)n2)sc1-c1ccc(S(C)(=O)=O)c(F)c1 (10 µM) | 0 | 0 | 0 | 0 | 0 | 0 | 0 | 0 | 0 | 0 | 0 | 0 | 0 | 0 | 0 | 0 | 0 | 0 | 0 | 0 |
| CC(C)Oc1ccc(-c2cnc3c(-c4ccnc5ccccc45)cnn3c2)cc1 (10 µM) | 0 | 0 | 0 | 0 | 0 | 0 | 0 | 0 | 0 | 0 | 0 | 0 | 0 | 0 | 0 | 0 | 0 | 0 | 0 | 0 |
| C[C@H]1[C@H](OC(=O)CCC(=O)O)O[C@@H]2O[C@@]3(C)CC[C@H]4[C@H](C)CC[C@@H]1[C@@]24OO3 [Artesunate] (2.5 µM) | 0 | 0 | 0 | 0 | 0 | 0 | 0 | 0 | 2 | 0 | 0 | 0 | 0 | 0 | 0 | 1 | 0 | 0 | 0 | 0 |
| c1ccc(-c2oc3ncnc(NC[C@@H]4CCCO4)c3c2-c2ccccc2)cc1 (2.5 µM) | 0 | 0 | 0 | 0 | 0 | 0 | 0 | 0 | 0 | 0 | 0 | 0 | 0 | 0 | 0 | 0 | 0 | 0 | 0 | 0 |
| COc1nc(-c2cccc3c2OCCO3)ccc1Nc1ccc(CN(C)C)cc1 [RAS inhibitor Abd-7] (10 µM) | 0 | 1 | 0 | 0 | 0 | 0 | 0 | 0 | 0 | 0 | 0 | 0 | 0 | 0 | 0 | 0 | 0 | 0 | 0 | 0 |
| CC(=O)NCCc1c[nH]c2ccc(O)cc12 [N-Acetyl-5-hydroxytryptamine] (10 µM) | 0 | 0 | 0 | 0 | 0 | 0 | 0 | 0 | 0 | 0 | 0 | 0 | 0 | 0 | 0 | 0 | 0 | 0 | 0 | 0 |
| CC1=C(CC(=O)O)c2cc(F)ccc2/C1=C\c1ccc(C(C)C)cc1 (10 µM) | 0 | 0 | 0 | 0 | 0 | 0 | 0 | 0 | 0 | 0 | 0 | 0 | 0 | 0 | 0 | 0 | 0 | 0 | 1 | 0 |
| CC(C)c1cnn2c(NCc3ccccc3-n3cccn3)nc(OC3CCCNC3)nc12 (stereo not given) (2.5 µM) | 1 | 0 | 0 | 0 | 0 | 0 | 0 | 0 | 0 | 0 | 0 | 0 | 0 | 2 | 0 | 0 | 2 | 0 | 0 | 0 |
| CCCCNC(=N)NC(=N)N [Buformin (hydrochloride)] (2.5 µM) | 0 | 0 | 0 | 0 | 0 | 0 | 0 | 0 | 0 | 0 | 0 | 0 | 0 | 0 | 0 | 0 | 0 | 0 | 0 | 0 |
| CN1CC[C@H](c2c(O)cc(O)c3c(=O)cc(-c4ccc(C(F)(F)F)cc4Cl)oc23)[C@H]1CO [(2S,3R)-Voruciclib (hydrochloride)] (2.5 µM) | 3 | 0 | 0 | 0 | 0 | 0 | 0 | 0 | 0 | 0 | 0 | 0 | 0 | 0 | 0 | 0 | 0 | 0 | 0 | 0 |
| Cc1cnc(Nc2ccc(N3CCN(C)CC3)cc2)nc1Nc1cccc(S(=O)(=O)NC(C)(C)C)c1 (2.5 µM) | 0 | 0 | 0 | 0 | 0 | 0 | 0 | 0 | 0 | 0 | 0 | 0 | 0 | 0 | 0 | 0 | 0 | 0 | 0 | 0 |

Reformatted bar-delimited: two of the compounds above
SMILES | number of time points [1] | number of time points [2] | number of time points [3] | number of time points [4] | number of time points [5] | number of time points [6] | number of time points [7] | number of time points [8] | number of time points [9] | number of time points [10] | number of time points [11] | number of time points [12] | number of time points [13] | number of time points [14] | number of time points [15] | number of time points [16] | number of time points [17] | number of time points [18] | number of time points [19] | number of time points [20]
CC(C)c1cc(/C=C(\C#N)C(N)=O)cc(C(C)C)c1O (10 µM) | 0 | 0 | 0 | 0 | 0 | 0 | 0 | 0 | 0 | 0 | 0 | 0 | 0 | 0 | 0 | 0 | 0 | 0 | 0 | 0
COc1nc(-c2cccc3c2OCCO3)ccc1Nc1ccc(CN(C)C)cc1 [RAS inhibitor Abd-7] (10 µM) | 0 | 1 | 0 | 0 | 0 | 0 | 0 | 0 | 0 | 0 | 0 | 0 | 0 | 0 | 0 | 0 | 0 | 0 | 0 | 0
